Data on one molecule can be found in publication PMC6547854.

Sequences of proteins named here, by UniProt entry; tags and fusion partners are left off.
UniProt P70351: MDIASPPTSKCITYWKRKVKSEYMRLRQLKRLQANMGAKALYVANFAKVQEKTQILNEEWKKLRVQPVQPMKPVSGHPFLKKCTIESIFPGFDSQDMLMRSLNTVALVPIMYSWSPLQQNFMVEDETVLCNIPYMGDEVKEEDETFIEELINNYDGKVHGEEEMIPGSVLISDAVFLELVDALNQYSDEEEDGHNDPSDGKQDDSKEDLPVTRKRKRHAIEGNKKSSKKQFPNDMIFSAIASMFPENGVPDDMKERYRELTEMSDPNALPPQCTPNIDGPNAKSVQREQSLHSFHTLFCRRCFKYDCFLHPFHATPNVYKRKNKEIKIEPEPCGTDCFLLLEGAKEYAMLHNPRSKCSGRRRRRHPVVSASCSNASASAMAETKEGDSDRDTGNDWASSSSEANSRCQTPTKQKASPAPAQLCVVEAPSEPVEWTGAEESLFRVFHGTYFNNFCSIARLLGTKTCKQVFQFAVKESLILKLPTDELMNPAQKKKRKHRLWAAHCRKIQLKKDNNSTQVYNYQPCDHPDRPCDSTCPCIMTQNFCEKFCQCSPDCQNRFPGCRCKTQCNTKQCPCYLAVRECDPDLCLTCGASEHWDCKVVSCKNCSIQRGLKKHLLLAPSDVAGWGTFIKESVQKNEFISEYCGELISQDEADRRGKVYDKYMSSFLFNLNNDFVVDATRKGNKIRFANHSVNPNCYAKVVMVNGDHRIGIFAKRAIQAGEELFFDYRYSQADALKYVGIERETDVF
UniProt Q61188: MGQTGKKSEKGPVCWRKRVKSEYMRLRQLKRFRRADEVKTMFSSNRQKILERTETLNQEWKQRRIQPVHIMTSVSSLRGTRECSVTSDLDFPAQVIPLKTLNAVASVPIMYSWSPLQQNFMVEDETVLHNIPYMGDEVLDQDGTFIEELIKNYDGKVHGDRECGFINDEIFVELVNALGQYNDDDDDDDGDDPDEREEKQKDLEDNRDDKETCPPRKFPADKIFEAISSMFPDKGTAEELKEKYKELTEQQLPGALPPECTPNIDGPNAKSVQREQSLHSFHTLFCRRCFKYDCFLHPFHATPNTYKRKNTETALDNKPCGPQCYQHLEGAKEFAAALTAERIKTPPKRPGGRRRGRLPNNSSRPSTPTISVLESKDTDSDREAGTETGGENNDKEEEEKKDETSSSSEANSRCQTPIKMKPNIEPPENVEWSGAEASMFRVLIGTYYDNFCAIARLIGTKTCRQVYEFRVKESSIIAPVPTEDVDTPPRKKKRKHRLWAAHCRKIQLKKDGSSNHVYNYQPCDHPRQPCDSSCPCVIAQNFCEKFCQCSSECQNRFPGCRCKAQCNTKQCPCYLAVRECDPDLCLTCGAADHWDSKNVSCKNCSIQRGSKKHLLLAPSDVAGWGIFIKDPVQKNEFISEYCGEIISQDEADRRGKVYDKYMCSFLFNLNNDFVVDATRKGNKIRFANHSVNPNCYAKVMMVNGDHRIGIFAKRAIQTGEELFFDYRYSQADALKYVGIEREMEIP

Results are given in words; binding and its absence hold for the method and conditions named. Binding seen in cells or lysates may run through a third protein. Some binding calls cover weakened binding; strength is not graded here.

The target of experiment [1] is EZH1 (mouse (endogenous in MLE12)) (UniProt P70351). Nature of the experiment: co-IP; extracts from control and lamin B1 KD cells; IP with control, EZH1 or EZH2 antibodies, blot with anti-lamin B1; coIP buffer 50 mM Tris pH 7.5, 100 mM NaCl, 15 mM EGTA, 0.1% Triton X-100; antibodies overnight at 4°C, Protein-A/G-Sepharose 3 h.
For experiment [2], the target named is EZH2 (mouse (endogenous in MLE12)) (UniProt Q61188). Described as above.

B1: lamin B1 (protein, UniProt P14733 1-588)
chain: MATATPVQQQRAGSRASAPATPLSPTRLSRLQEKEELRELNDRLAVYIDKVRSLETENSALQLQVTEREEVRGRELTGLKALYETELADARRALDDTARERAKLQIELGKFKAEHDQLLLNYAKKESDLSGAQIKLREYEAALNSKDAALATALGDKKSLEGDLEDLKDQIAQLEASLSAAKKQLADETLLKVDLENRCQSLTEDLEFRKNMYEEEINETRRKHETRLVEVDSGRQIEYEYKLAQALHEMREQHDAQVRLYKEELEQTYHAKLENARLSSEMNTSTVNSAREELMESRMRIESLSSQLSNLQKESRACLERIQELEDMLAKERDNSRRMLSDREREMAEIRDQMQQQLSDYEQLLDVKLALDMEISAYRKLLEGEEERLKLSPSPSSRVTVSRASSSRSVRTTRGKRKRVDVEESEASSSVSISHSASATGNVCIEEIDVDGKFIRLKNTSEQDQPMGGWEMIRKIGDTSVSYKYTSRYVLKAGQTVTVWAANAGVTASPPTDLIWKNQNSWGTGEDVKVILKNSQGEEVAQRSTVFKTTIPEEEEEEEEEPIGVAVEEERFHQQGAPRASNKSCAIM
Turning to B1, the binding entry in experiment [1] and in experiment [2] was “binds” throughout.
